No constants are given. Whether binding was seen depends on the method and setting. Some entries that bind do so weakly or less than the wild type.
T1: CD40 ligand (UniProt P29965 108-261, limits assumed)
T1 sequence (looked up): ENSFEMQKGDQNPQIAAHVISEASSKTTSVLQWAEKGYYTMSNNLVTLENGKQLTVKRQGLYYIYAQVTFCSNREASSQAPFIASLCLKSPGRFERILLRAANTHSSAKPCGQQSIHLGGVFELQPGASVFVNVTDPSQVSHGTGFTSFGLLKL

B1: M08_40L_0103_0719 (peptide)
peptide: ELRDGNFDDTDRVGTVHDMRFVFLDNDTKLLFCTAYDDEWDPYIDDFATKIPDELDLFKCNSC
B2: M08_40L_0103_0720 (peptide)
peptide: ELRLPETRKAQAALATKYGIYGFCYYHYWFNGRRILESPVDAMLESGEPDFPFMLCWANENWTSNSC
B3: M08_40L_0103_0722 (peptide)
peptide: ELHPEQKRLSTLSFYKEAQDEVTFYRDWDADSDSPDGELFGGSLANFEPTLETYDPDDAAPWAWNLPSDLFQEQFENWSEFHKILQNSNSC
B4: M08_40L_0103_0725 (peptide)
peptide: ELLWNDGVSKEPFYEMDADLHLIDPNALIDWLGAWDQSDLTEIRENVAPFLGNLIFRQTDDWHDYRYYSNSC
B5: M08_40L_0104_0727 (peptide)
peptide: ELLSWVTDNCDFTGSITERPYNGPWMQFDRDIDPSVLDPQADSDVSLDEVVEYDCRIDETDLEEWISDHEEFPDLVSLLDISVDGERWIPLHGIYKWRADEGNSC
B6: M08_40L_0104_0730 (peptide)
peptide: ELLRPHDPEKAKALLAEAGVSDVSLDYVVNAGNEVDEQIAVLLQQQLGQAGITVNLQKMDPSMTWDMLVNGEYDLSVMYWTNDILDPDQKTTFVLGHDVNMNYRRNSC
B7: M08_40L_0104_0733 (peptide)
peptide: ELPLDEVNYSYPVVAIKEIHVWKSQDYDSGYPYPTPAPYYYYDPYWYGVWPGPYWHRPLGPVRRNSC
B8: M08_40L_0104_0735 (peptide)
peptide: ELLMNEESTEFIARGHLTDDWDKVFFDSLNGGMEYGPGSFLGMGSPFNLMDHFSVHRYYQAGGDTDFTDEQYYKIFARNSC
B9: M08_40L_0104_0736 (peptide)
peptide: ELRHDGYTFSPHQAMPKDEFGEWPVPVFPNGDCYFFFHQDFSWGLLGDPWKCAITVFGESNSC
B10: M08_40L_0104_0737 (peptide)
peptide: ELLPYEELDGVSIDLDGLTQLWNDGVSKEPFYEMDADLHLIDPNALIDWLGAWDQSDLTGNSC
B11: M08_40L_0104_0738 (peptide)
peptide: ELHFKPKQLLGLTATPEWMDGLNVQDKFFEGRIAAELRLWEALENDLLCPFHYFGIPDGTDLTSNSC
B12: M08_40L_0104_0739 (peptide)
peptide: ELLLQGEDMIEQLGRAHMSWGLGSADRWDLDQTTGIITWTFPDKTAAAPAQILGSFSPGSGSWLWAWANKSNSC
B13: M08_40L_0104_0740 (peptide)
peptide: ELRVEWDYWYPVDYRFSGNDLITNHLTFYQFHHGELFDEPQWPRGIVIMGNSC
B14: M08_40L_0104_0741 (peptide)
peptide: LELLFGGSLVNLEPTLETYDPDDAAPWAWNLPSDLFQEQFENWSEFHKILQNSNSC
B15: M08_40L_0104_0742 (peptide)
peptide: ELPCYDMHGLPIETKVEEQLGFESKKDIQEFGEEAFIEECKRFADDNLDGLQSDFQSFGVWMDWDNPYKTVDPSYMEAAWWAFSEVQSATALAGDGSSNSC
B16: M08_40L_0104_0743 (peptide)
peptide: ELLARSGNWKNLWDDAIGCVRPRYPNGEWVENYSCTYDYPDRSGPWWDAVFYEGNSLQYSSFVPQDVAGLMANTGGPDGFVKWLDHLFDGHYSQSNSC
B17: M08_40L_0104_0745 (peptide)
peptide: ELPTYAFERERFWLDVEEGSAGGSGVSGMWGGPLWEAVECGDAGACELWNWSLDVLLSNSC
B18: M08_40L_0104_0746 (peptide)
peptide: ELLCQPLALSGIDNPFEWIDIAKGAPHVSISLGEGVDIYSPDDEPASNGPLPDDVLDLFWCFGNSC
B19: M08_40L_0104_0749 (peptide)
peptide: ELLIDRWYWPNDVPSSLVPGYNATPNPDVGGPLFGDNEDLNQIVDEGWWIFYEESRNSC
B20: M09_40L_0103_0752 (peptide)
peptide: ELLCRVSAAEPPAGGRAAVRLLQGYLWYPEGADVDLESFLPRELDLSQAPSLSEEDAHVLWDQVQPPFAFFENGN
B21: M09_40L_0103_0753 (peptide)
peptide: ELLRDGNFDDTDRVGTVHDMRFVFLDNDTKLLFCTAYDDEWDPYIDDFATKIPDELDLFISN
B22: M09_40L-0103_0754 (peptide)
peptide: ELRMISYCMASDPFGHAVRDYYLGELEEPLIDRDGDETREHSIEEWYFGEYQRDEWFESWLEGPLLDMGN
B23: M09_40L_0103_0759 (peptide)
peptide: ELLFDHFRFCLTEFDRFDFSDHHGYLERNDWTIHDFAGNGATGQFAVELTPDIIEETYRKAQDSANAVGDTPASREFEFKRYYYSRN
B24: M09_40L_0103_0760 (peptide)
peptide: ELRWLVGTYSYQNDAYRQLFEPDDESALLQELSEYLDDHGSEPIIYYGGNYFDEQCLSRRFDEHGN
B25: M09_40L_0103_0761 (peptide)
peptide: ELLFGGSLVNLEPTLETYDPDDAAPWAWNLPSDLFQEQFENWSEFHKILQNSN
B26: M09_40L_0103_0762 (peptide)
peptide: ELQRLAERYLSESYWGDVIEASDDVWELVACPVDGALDAALWDAWLESLEEGRYSN
B27: M09_40L_0103_0764 (peptide)
peptide: ELLWDDAIGCVRPRYPNGEWVENYSCTYDYPDRSGPWWDAVFYEGDSLQYSSFVPQDVAGLMANTGGPDGFVKWLDHLFDGHYSQSN
B28: M09_40L_0104_0767 (peptide)
peptide: ELLGEYEHAARYVSEVECNWKTFAGNYSECDHCHANHQDWITDIELAEPELEVNDYHWILHYTHDEDVEDEMRIHDEHEAKFYYFWPNFTGN
B29: M09_40L_0104_0769 (peptide)
peptide: ELLFHGHDQFSQVEGVCAEVFNERGFGLDFLGGHAELVHDDLLDFFFNGHGSLQCN
B30: M09_40L_0104_0770 (peptide)
peptide: ELHPVGETGPQLNATDHFHSTGHPVIRSFEPGEGWFWDYTTSELYESGPALAPPPNATDHFHSTGHPVIRSFEPGEGWFWDYTSN
B31: M09_40L_0104_0771 (peptide)
peptide: ELLQNYALIHDQDFGGWQQWWDLHNVEGEPSTGLLVEDGNLALQAALDGLGIALLRPSLVDVFVDEGGLSRLFDHQLEDGRDYYLCHLVEQPLSEAEERN
B32: M09_40L_0104_0772 (peptide)
peptide: ELPLAAGTSWWEKELFMGAPDWSQFEKYPYPSLSPEEQSFIDNEVEVLCSN
B33: M09_40L_0104_0774 (peptide)
peptide: ELPLGEYEHAARYVSEVECNWKTFAGNYSECDHCHANHQDWITDIELAESELEVNDYHWILHYTHDEDVEDEMRIHDEHEAKFYYFWPNFTSN
B34: M09_40L_0104_0776 (peptide)
peptide: ELLQTSAFEPDYVGERLDEWAWIVYPWNFIEDLEELLEGEDDPEHRQKEYIAWTKSSDWKCN
B35: M09_40L_0104_0781 (peptide)
peptide: ELLLERLNGVSVDWSNLYNSWNPDKETLYELDSDLHLADPAYVSTMDAWDTADVEEVQTEIAPWFGNSLSRNHSEPPADWADQYQYYSLWDIYGN
B36: M09_40L_0104_0784 (peptide)
peptide: ELLWIGINTNGMQWNGMQWQRMEWNGMEWHKPEWYGMEWNGMEWNGMEWKGIECN

These binders were tested against T1, CD40 ligand (assay: phage display screen on CD40L).

Row | Binder | binding
1 | ELLHLPRPGFCDARSHGDSNFEDLFYFILCGTHFNSC [M08_40L_0103_0717] | binds
2 | B1 | binds
3 | B2 | binds
4 | ELLWRLNEWNYSDAELLSLIEWCIDHGNSC [M08_40L_0103_0721] | binds
5 | B3 | binds
6 | ELPHLPRPGFCDARSHGDSNFEDLFYFILCGTHFNSC [M08_40L_0103_0723] | binds
7 | ELLMRDWNYPGWVMSDWACENDFLLNKVLKRDWNYPGWVMSDCGNSC [M08_40L_0103_0724] | binds
8 | B4 | binds
9 | B5 | binds
10 | ELGVWMDGWVCGWLGLDEWIGTRVEGGQRDVDGCNSC [M08_40L_0104_0729] | binds
11 | B6 | binds
12 | B7 | binds
13 | B8 | binds
14 | B9 | binds
15 | B10 | binds
16 | B11 | binds
17 | B12 | binds
18 | B13 | binds
19 | B14 | binds
20 | B15 | binds
21 | B16 | binds
22 | B17 | binds
23 | B18 | binds

Row | Binder | binding
24 | B19 | binds
25 | B20 | binds
26 | B21 | binds
27 | B22 | binds
28 | B23 | binds
29 | B24 | binds
30 | B25 | binds
31 | B26 | binds
32 | B27 | binds
33 | B28 | binds
34 | B29 | binds
35 | B30 | binds
36 | B31 | binds
37 | B32 | binds
38 | ELPKFDEYLSDDNNPDEPGWFMQWLQQTCDLFAYTFDEAWFDIGTPQSN [M09_40L_0104_0773] | binds
39 | B33 | binds
40 | B34 | binds
41 | ELLWCQHGGFKYGTSLTDMFDQFKSEYCDGCN [M09_40L_0104_0777] | binds
42 | ELRGCHSNTHQYAFSPGSPFFPFAISLPWRHDSDVEAAPCN [M09_40L_0104_0778] | binds
43 | B35 | binds
44 | B36 | binds
45 | ELLWDVKTYVSDQDGTGWDLVEQYQNKYGMPNPDGTIGKTLWLDYIQCN [M09_40L_0104_0785] | binds

From patent publication US20130266605A1, “PEPTIDE INHIBITORS OF CD40L SIGNALING AND USES THEREFOR” (PHYLOGICA LIMITED, priority 2010, published 2013)
